Taken from: PubChem BioAssay AID1259405 (NCATS, 2018)
Shown is an unselected part of about 50,000 reagents tested. About 4,000 of all reagents (8%) count as active. 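Mouse siRNA library applied to hamster cells; one well for each siRNA.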 A number with no mark means an inactive call. Reagents against one gene are numbered here.

- Screen: 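Mouse-designed siRNAs used to find CHO productivity engineering targets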 (primary screen)
- System: Chinese hamster CHO-K1 ovary cells with stable secreted eGFP expression
- Reagent: single siRNA against mouse genes, 0.8 pmol siRNA per well (2 µl of 400 nM stock)
- Time to read-out: 3 days
- Read-out: 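Per-well intracellular GFP measured by laser scanning cytometry, plus viability from ATP luminescence, each relative to plate median of non-targeting control wells, in %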
- Reading the numbers: GFP, % of control: higher = more GFP per well, higher productivity; viability (ATP), % of control: higher = more viable cells (more ATP)
- Call rule: 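Called active when intracellular GFP, relative to negative control, is at or above 120%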

The opening 10 records as a preview:
no.	gene	reagent no.	GFP, % of control	viability (ATP), % of control
1	S100a10	1	90.1	114
2	S100a10	2	69.4	71
3	Frk	1	79.6	53.5
4	Adsl	1	101	98.2
5	Adsl	2	82.3	89.4
6	Adsl	3	74.9	46.1
7	Sult1c2	1	139 (active)	151
8	Sult1c2	2	87.6	77.3
9	Sult1c2	3	92.3	45.5
10	Aco2	1	100	116

Main list, from the start:
no.	gene	reagent no.	GFP, % of control	viability (ATP), % of control
1	S100a10	1	90.1	114
2	S100a10	2	69.4	71
3	Frk	1	79.6	53.5
4	Adsl	1	101	98.2
5	Adsl	2	82.3	89.4
6	Adsl	3	74.9	46.1
7	Sult1c2	1	139 (active)	151
8	Sult1c2	2	87.6	77.3
9	Sult1c2	3	92.3	45.5
10	Aco2	1	100	116
11	Aco2	2	66.9	82.2
12	Pcbp2	1	87.4	83.3
13	Pcbp2	2	79.1	52.1
14	Dhrs9	1	74.1	78.1
15	Dhrs9	2	83.2	83.4
16	Dhrs9	3	88.3	79.9
17	Babam1	1	73.8	60.7
18	Babam1	2	87	80.7
19	Babam1	3	102	94.8
20	Dnajc7	1	53.2	63.5
21	Dnajc7	2	73.4	80.2
22	Dnajc7	3	68.9	98.7
23	Pnrc2	1	82.5	85.7
24	Pnrc2	2	96.1	63.6
25	Pnrc2	3	80	70.5
26	Polr2a	1	108	94.4
27	Polr2a	2	77.3	71.6
28	Rpl8	1	80.2	121
29	Rpl8	2	135 (active)	65.8
30	Rpl8	3	97.6	88.2
31	Nos1	1	77.4	77.3
32	Nos1	2	85.1	61.9
33	Atp10d	1	102	75.9
34	Atp10d	2	92.9	98.2
35	Atp10d	3	90	126
36	Slc46a2	1	99.6	101
37	Slc46a2	2	66.5	77
38	Slc46a2	3	84	61.3
39	Or2ab1	1	100	75.4
40	Or2ab1	2	86.9	58.9
41	Or2ab1	3	131 (active)	68
42	Atg4c	1	86.1	93
43	Atg4c	2	79.6	78.6
44	Tnni2	1	54.1	45.9
45	Tnni2	2	74.2	71.1
46	Tnni2	3	87.2	53
47	Adtrp	1	89	81.2
48	Adtrp	2	115	71.8
49	Adtrp	3	69.7	81.5
50	Syce2	1	77.2	58.5
51	Syce2	2	61.9	60.4
52	Syce2	3	79	83
53	Cyp2c23	1	39.5	48.7
54	Cyp2c23	2	84.5	66.6
55	Cyp2c23	3	83	92.2
56	Or2w6	1	113	85.4
57	Or2w6	2	26.2	30.5
58	Or2w6	3	37.9	78.8
59	E030011O05Rik	1	53.5	55.6
60	E030011O05Rik	2	89.8	71
61	E030011O05Rik	3	120 (active)	80.1
62	Or1j15	1	90.6	76.7
63	Or1j15	2	127 (active)	58.3
64	Or1j15	3	52.6	63
65	Cnn2	1	61.1	51.4
66	Cnn2	2	95.1	86
67	Cnn2	3	127 (active)	79.2
68	Dip2c	1	50.3	59.3
69	Dip2c	2	41.2	46.5
70	Dip2c	3	72.4	59.1
71	Or3a1b	1	91.9	64
72	Or3a1b	2	117	124
73	Or3a1b	3	63.7	60.5
74	Zbtb43	1	88.8	67
75	Zbtb43	2	66.9	64.2
76	Zbtb43	3	59.3	90.4
77	Tnp2	1	131 (active)	66.4
78	Tnp2	2	82.5	89.3
79	Unc5c	1	86.2	77.8
80	Unc5c	2	72.7	73.7
81	Unc5c	3	53.5	71.4
82	Apobr	1	110	56.1
83	Apobr	2	73	67.2
84	Apobr	3	92.5	75.5
